Results from doi:10.1101/723940.
No constants are given. Whether binding was seen depends on the method and setting. In cells and extracts the contact can be indirect. A yes stands for co-enrichment or nearness to the bait. Other partners may have been found.

Sequences of proteins named here, by UniProt entry; tags and fusion partners are left off.
UniProt Q9Y696: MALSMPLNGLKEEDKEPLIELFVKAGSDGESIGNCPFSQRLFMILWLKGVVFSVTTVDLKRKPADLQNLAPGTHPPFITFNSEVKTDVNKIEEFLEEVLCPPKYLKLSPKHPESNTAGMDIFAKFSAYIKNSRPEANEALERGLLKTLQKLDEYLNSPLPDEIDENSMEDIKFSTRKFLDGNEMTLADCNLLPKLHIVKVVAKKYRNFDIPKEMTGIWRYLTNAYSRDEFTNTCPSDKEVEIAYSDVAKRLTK
UniProt Q9P289: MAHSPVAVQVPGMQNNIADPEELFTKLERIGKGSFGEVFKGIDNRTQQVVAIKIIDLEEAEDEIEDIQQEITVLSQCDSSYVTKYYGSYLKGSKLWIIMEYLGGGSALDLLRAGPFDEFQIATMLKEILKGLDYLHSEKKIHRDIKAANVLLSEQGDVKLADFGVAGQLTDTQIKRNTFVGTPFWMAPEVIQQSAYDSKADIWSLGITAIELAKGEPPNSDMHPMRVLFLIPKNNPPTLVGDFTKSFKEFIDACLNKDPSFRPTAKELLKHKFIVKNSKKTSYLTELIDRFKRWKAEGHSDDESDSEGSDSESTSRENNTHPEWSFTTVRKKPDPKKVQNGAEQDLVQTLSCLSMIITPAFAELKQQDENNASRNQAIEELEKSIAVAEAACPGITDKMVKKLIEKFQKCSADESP

Biological target: GFP-CLIC4 (pLVX:GFP-CLIC4) (UniProt Q9Y696)
Experiment: affinity purification with mass spectrometry

- binding: binds
Substance: MST4 kinase (from UniProt Q9P289 1-416) (enzyme)
